This is an account of results in publication PMC9064840.

By UniProt entry, the sequences of proteins in these tests, tags left out. Residues count along the entry.
UniProt Q01973, residues 30-937: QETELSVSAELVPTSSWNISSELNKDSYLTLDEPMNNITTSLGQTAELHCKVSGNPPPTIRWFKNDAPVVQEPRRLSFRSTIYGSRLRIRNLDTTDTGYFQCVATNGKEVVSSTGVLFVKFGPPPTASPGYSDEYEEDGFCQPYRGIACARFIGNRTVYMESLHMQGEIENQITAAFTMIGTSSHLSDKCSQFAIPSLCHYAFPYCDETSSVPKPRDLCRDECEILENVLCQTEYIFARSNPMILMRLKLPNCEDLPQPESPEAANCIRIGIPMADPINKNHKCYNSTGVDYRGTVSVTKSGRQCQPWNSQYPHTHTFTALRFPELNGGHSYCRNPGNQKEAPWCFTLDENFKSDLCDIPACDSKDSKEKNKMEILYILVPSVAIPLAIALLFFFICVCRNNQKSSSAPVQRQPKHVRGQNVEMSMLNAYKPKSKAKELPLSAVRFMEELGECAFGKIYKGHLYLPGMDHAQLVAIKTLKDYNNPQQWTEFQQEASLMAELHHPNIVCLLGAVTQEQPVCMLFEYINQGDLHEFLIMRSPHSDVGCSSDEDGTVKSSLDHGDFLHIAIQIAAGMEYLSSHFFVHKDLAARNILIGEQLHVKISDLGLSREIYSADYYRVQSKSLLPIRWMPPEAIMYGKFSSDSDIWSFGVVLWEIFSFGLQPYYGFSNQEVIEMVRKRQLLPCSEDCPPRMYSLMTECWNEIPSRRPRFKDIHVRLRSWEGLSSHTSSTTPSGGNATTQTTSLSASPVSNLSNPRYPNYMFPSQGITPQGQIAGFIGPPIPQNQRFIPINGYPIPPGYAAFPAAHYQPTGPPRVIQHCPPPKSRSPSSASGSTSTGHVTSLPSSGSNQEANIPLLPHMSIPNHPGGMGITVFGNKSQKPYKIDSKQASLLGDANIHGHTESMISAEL
UniProt O60884: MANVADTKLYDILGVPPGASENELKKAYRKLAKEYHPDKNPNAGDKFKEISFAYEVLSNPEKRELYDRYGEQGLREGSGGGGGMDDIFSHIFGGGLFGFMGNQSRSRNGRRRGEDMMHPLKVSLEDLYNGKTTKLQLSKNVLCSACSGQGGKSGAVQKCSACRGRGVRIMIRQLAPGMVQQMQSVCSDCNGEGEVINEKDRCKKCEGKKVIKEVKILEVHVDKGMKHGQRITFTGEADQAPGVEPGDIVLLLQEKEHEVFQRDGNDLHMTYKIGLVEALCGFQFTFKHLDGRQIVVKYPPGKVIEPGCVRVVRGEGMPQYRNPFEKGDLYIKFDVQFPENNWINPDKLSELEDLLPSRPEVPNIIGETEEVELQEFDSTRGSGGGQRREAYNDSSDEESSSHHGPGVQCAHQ
UniProt P27694: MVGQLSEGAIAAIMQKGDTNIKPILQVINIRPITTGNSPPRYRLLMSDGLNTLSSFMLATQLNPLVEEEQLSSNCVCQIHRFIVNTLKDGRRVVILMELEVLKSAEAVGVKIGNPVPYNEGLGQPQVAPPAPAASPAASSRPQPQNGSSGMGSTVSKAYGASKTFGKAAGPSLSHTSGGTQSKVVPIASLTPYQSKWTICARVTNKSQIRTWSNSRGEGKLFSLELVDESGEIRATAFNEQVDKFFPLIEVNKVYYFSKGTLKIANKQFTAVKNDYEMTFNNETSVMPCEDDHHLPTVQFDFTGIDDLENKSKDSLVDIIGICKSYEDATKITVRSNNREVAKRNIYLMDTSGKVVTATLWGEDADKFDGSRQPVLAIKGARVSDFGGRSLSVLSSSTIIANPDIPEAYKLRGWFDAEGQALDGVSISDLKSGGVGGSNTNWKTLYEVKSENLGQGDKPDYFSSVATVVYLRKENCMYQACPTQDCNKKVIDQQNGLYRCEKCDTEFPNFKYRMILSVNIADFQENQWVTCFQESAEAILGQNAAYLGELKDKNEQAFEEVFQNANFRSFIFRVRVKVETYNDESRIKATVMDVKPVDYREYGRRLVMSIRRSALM
UniProt P15927: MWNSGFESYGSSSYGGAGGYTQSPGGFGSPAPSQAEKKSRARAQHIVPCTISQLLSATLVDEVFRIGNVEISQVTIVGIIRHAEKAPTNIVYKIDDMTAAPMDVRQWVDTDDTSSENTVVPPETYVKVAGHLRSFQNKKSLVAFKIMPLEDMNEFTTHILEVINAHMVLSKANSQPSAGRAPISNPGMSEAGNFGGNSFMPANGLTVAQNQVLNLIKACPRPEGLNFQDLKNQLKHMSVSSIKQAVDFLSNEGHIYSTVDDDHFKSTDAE

Assay [1] addresses MAC-tagged ROR1 (human) (UniProt Q01973). As to the kind of experiment: proximity labelling; BioID: MAC-tagged ROR1 as bait, induced with tetracycline and 50 μM biotin in Flp-In T-REx 293 cells; 100 µM pervanadate for 15 min before harvest; cells given water or 1 µM GZD824 for 1 h; two biological replicates; high-confidence interactors after statistical filtering.
Assay [2] shares this target. As to the kind of experiment: affinity purification with mass spectrometry; MAC-tagged ROR1 as bait, induced with 1 μg/ml tetracycline for 24 h in Flp-In T-REx 293 cells; 100 µM pervanadate for 15 min before harvest; cells given water or 1 µM GZD824 for 1 h; two biological replicates; high-confidence interactors after statistical filtering.

No constants are given. Whether binding was seen depends on the method and setting. In cells and extracts the contact can be indirect. Here binding means that the protein was enriched with, or labelled near, the bait; the list need not be complete.

For the molecule “DNA J homolog subfamily A member 2 (from UniProt O60884 1-412)”, the binding entry in the assay with MAC-tagged ROR1 (human) [1] and with MAC-tagged ROR1 (human) [2] was “binds” in each case.

On to RPA1 (from UniProt P27694 1-616), for which the binding entry with MAC-tagged ROR1 (human) [1] and with MAC-tagged ROR1 (human) [2] was “binds” each time.

For RPA2 (from UniProt P15927 1-270), the binding result with MAC-tagged ROR1 (human) [1] and with MAC-tagged ROR1 (human) [2] was “binds” each time.

B1: DDOST (protein, UniProt P39656 43-456)
chain: SGPRTLVLLDNLNVRETHSLFFRSLKDRGFELTFKTADDPSLSLIKYGEFLYDNLIIFSPSVEDFGGNINVETISAFIDGGGSVLVAASSDIGDPLRELGSECGIEFDEEKTAVIDHHNYDISDLGQHTLIVADTENLLKAPTIVGKSSLNPILFRGVGMVADPDNPLVLDILTGSSTSYSFFPDKPITQYPHAVGKNTLLIAGLQARNNARVIFSGSLDFFSDSFFNSAVQKAAPGSQRYSQTGNYELAVALSRWVFKEEGVLRVGPVSHHRVGETAPPNAYTVTDLVEYSIVIQQLSNGKWVPFDGDDIQLEFVRIDPFVRTFLKKKGGKYSVQFKLPDVYGVFQFKVDYNRLGYTHLYSSTQVSVRPLQHTQYERFIPSAYPYYASAFSMMLGLFIFSIVFLHMKEKEKSD
For B1, in the assay with MAC-tagged ROR1 (human) [2], the binding result is reported as “binds”.

B2: Hsp90 co-chaperone (CDC37) (protein, UniProt Q16543 1-378)
chain: MVDYSVWDHIEVSDDEDETHPNIDTASLFRWRHQARVERMEQFQKEKEELDRGCRECKRKVAECQRKLKELEVAEGGKAELERLQAEAQQLRKEERSWEQKLEEMRKKEKSMPWNVDTLSKDGFSKSMVNTKPEKTEEDSEEVREQKHKTFVEKYEKQIKHFGMLRRWDDSQKYLSDNVHLVCEETANYLVIWCIDLEVEEKCALMEQVAHQTIVMQFILELAKSLKVDPRACFRQFFTKIKTADRQYMEGFNDELEAFKERVRGRAKLRIEKAMKEYEEEERKKRLGPGGLDPVEVYESLPEELQKCFDVKDVQMLQDAISKMDPTDAKYHMQRCIDSGLWVPNSKASEAKEGEEAGPGDPLLEAVPKTGDEKDVSV
Take B2: the binding result with MAC-tagged ROR1 (human) [1] and with MAC-tagged ROR1 (human) [2] was “binds” in each case.
